Converted amounts (≈) assume the structure as drawn.
Key:
[1] = test system: Staphylococcus aureus LAC MRSA; assay: Broth microdilution MIC; format: cell-based; conditions: pH 7, read-out: MIC Sa (S. aureus LAC MRSA)
[2] = test system: Staphylococcus aureus JE2 MRSA; assay: Broth microdilution MIC; format: cell-based; conditions: pH 7, read-out: MIC Sa (S. aureus JE2 MRSA)

MIC [1]: 2 µg/mL (≈ 1.38 µM)
MIC [2]: 2 µg/mL (≈ 1.38 µM)
SMILES: CN[C@H](CC(C)C)C(=O)N[C@H]1C(=O)N[C@@H](CC(N)=O)C(=O)N[C@H]2C(=O)N[C@H]3C(=O)N[C@H](C(=O)N[C@H](C(=O)O)c4cc(O)cc(O)c4-c4cc3ccc4O)[C@H](O)c3ccc(c(Cl)c3)Oc3cc2cc(c3O[C@@H]2O[C@H](CO)[C@@H](O)[C@H](O)[C@H]2O[C@H]2C[C@](C)(N)[C@H](O)[C@H](C)O2)Oc2ccc(cc2Cl)[C@H]1O [Van, Vancomycin]
